According to PMC4646279:
These are yes or no findings as the source states them, for the method shown. Binding seen in cells or lysates may run through a third protein. Some binding calls cover weakened binding; strength is not graded here. Sequences can lack the tags named with a protein. One block for each binder: values may come before it.

How the values were obtained:
[1] = target: T1, FLAG-ArgRS (human), P54136; test: co-IP; MSC purification: 293T transfected with FLAG-ArgRS or FLAG-p43, lysate on anti-FLAG M2 affinity gel 2 h at 4 °C, washed with PBS four times, eluted with 3xFLAG peptides; Coomassie staining and Western blots; details: remark: other sources report otherwise
T1 chain: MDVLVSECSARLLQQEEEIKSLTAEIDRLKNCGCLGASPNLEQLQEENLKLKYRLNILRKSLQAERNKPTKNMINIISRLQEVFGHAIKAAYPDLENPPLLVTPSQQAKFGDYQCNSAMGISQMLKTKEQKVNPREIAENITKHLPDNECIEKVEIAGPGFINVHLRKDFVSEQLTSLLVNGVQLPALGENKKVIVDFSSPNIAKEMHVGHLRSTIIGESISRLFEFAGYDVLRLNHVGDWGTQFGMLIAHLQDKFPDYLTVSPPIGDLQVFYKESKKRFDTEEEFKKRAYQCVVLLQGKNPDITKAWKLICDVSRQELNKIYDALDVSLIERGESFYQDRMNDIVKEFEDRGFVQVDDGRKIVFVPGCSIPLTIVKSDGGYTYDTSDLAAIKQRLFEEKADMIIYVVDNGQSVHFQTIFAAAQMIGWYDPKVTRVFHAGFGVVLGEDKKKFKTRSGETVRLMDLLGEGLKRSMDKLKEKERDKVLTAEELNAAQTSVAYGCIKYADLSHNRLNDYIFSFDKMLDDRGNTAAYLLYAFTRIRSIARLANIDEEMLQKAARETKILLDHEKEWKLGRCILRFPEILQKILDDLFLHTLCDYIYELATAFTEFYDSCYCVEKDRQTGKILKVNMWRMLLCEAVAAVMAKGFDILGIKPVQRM

[2] = target: T2, FLAG-p43 (human) (UniProt Q12904); test: as above
T2 sequence: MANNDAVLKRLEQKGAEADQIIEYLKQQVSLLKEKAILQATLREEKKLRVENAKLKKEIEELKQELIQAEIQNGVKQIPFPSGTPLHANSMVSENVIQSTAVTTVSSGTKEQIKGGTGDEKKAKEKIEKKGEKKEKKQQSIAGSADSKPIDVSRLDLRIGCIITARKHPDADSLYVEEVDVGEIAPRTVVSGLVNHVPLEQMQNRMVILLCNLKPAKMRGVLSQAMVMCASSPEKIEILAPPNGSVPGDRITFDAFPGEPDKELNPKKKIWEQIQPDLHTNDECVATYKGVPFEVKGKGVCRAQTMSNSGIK

[3] = target: T3, FLAG-p43 (human), Q12904; test: as above; details: remark: other sources report otherwise
T3 chain: T2 sequence

[4] = target: T1, FLAG-ArgRS (human), P54136; test: co-IP; 293T extracts overexpressing FLAG-tagged full-length or truncated ArgRS, p43 or GlnRS; IP with FLAG antibody, Western blot with antibodies against MSC components; details: remark: other sources report otherwise

- binding [1]: binds
B1: methionyl-tRNA synthetase (MetRS), endogenous, P56192 1-900 (enzyme)
chain: MRLFVSDGVPGCLPVLAAAGRARGRAEVLISTVGPEDCVVPFLTRPKVPVLQLDSGNYLFSTSAICRYFFLLSGWEQDDLTNQWLEWEATELQPALSAALYYLVVQGKKGEDVLGSVRRALTHIDHSLSRQNCPFLAGETESLADIVLWGALYPLLQDPAYLPEELSALHSWFQTLSTQEPCQRAAETVLKQQGVLALRPYLQKQPQPSPAEGRAVTNEPEEEELATLSEEEIAMAVTAWEKGLESLPPLRPQQNPVLPVAGERNVLITSALPYVNNVPHLGNIIGCVLSADVFARYSRLRQWNTLYLCGTDEYGTATETKALEEGLTPQEICDKYHIIHADIYRWFNISFDIFGRTTTPQQTKITQDIFQQLLKRGFVLQDTVEQLRCEHCARFLADRFVEGVCPFCGYEEARGDQCDKCGKLINAVELKKPQCKVCRSCPVVQSSQHLFLDLPKLEKRLEEWLGRTLPGSDWTPNAQFITRSWLRDGLKPRCITRDLKWGTPVPLEGFEDKVFYVWFDATIGYLSITANYTDQWERWWKNPEQVDLYQFMAKDNVPFHSLVFPCSALGAEDNYTLVSHLIATEYLNYEDGKFSKSRGVGVFGDMAQDTGIPADIWRFYLLYIRPEGQDSAFSWTDLLLKNNSELLNNLGNFINRAGMFVSKFFGGYVPEMVLTPDDQRLLAHVTLELQHYHQLLEKVRIRDALRSILTISRHGNQYIQVNEPWKRIKGSEADRQRAGTVTGLAVNIAALLSVMLQPYMPTVSATIQAQLQLPPPACSILLTNFLCTLPAGHQIGTVSPLFQKLENDQIESLRQRFGGGQAKTSPKPAVVETVTTAKPQQIQALMDEVTKQGNIVRELKAQKADKNEVAAEVAKLLDLKKQLAVAEGKPPEAPKGKKKK

- binding [2]: binds
B2: methionyl-tRNA synthetase (MetRS), endogenous (enzyme, UniProt P56192 1-900)
chain: B1 chain

- binding [1]: binds
B5: p18, endogenous, O43324 1-174 (protein)
chain: MAAAAELSLLEKSLGLSKGNKYSAQGERQIPVLQTNNGPSLTGLTTIAAHLVKQANKEYLLGSTAEEKAIVQQWLEYRVTQVDGHSSKNDIHTLLKDLNSYLEDKVYLTGYNFTLADILLYYGLHRFIVDLTVQEKEKYLNVSRWFCHIQHYPGIRQHLSSVVFIKNRLYTNSH

- binding [2]: binds
B6: p18, endogenous (protein, UniProt O43324 1-174)
chain: B5 chain

- binding [4]: binds
- binding [1]: binds
B8: p38, endogenous, Q13155 1-320 (protein)
chain: MPMYQVKPYHGGGAPLRVELPTCMYRLPNVHGRSYGPAPGAGHVQEESNLSLQALESRQDDILKRLYELKAAVDGLSKMIQTPDADLDVTNIIQADEPTTLTTNALDLNSVLGKDYGALKDIVINANPASPPLSLLVLHRLLCEHFRVLSTVHTHSSVKSVPENLLKCFGEQNKKQPRQDYQLGFTLIWKNVPKTQMKFSIQTMCPIEGEGNIARFLFSLFGQKHNAVNATLIDSWVDIAIFQLKEGSSKEKAAVFRSMNSALGKSPWLAGNELTVADVVLWSVLQQIGGCSVTVPANVQRWMRSCENLAPFNTALKLLK

Second part, the binder before the results:

B3: aspartyl-tRNA synthetase (AspRS), endogenous, P14868 1-501 (enzyme)
chain: MPSASASRKSQEKPREIMDAAEDYAKERYGISSMIQSQEKPDRVLVRVRDLTIQKADEVVWVRARVHTSRAKGKQCFLVLRQQQFNVQALVAVGDHASKQMVKFAANINKESIVDVEGVVRKVNQKIGSCTQQDVELHVQKIYVISLAEPRLPLQLDDAVRPEAEGEEEGRATVNQDTRLDNRVIDLRTSTSQAVFRLQSGICHLFRETLINKGFVEIQTPKIISAASEGGANVFTVSYFKNNAYLAQSPQLYKQMCICADFEKVFSIGPVFRAEDSNTHRHLTEFVGLDIEMAFNYHYHEVMEEIADTMVQIFKGLQERFQTEIQTVNKQFPCEPFKFLEPTLRLEYCEALAMLREAGVEMGDEDDLSTPNEKLLGHLVKEKYDTDFYILDKYPLAVRPFYTMPDPRNPKQSNSYDMFMRGEEILSGAQRIHDPQLLTERALHHGIDLEKIKAYIDSFRFGAPPHAGGGIGLERVTMLFLGLHNVRQTSMFPRDPKRLTP
- binding [1]: binds
- binding [3]: binds

B4: arginyl-tRNA synthetase (ArgRS), endogenous, P54136 1-660 (enzyme)
chain: T1 chain
- binding [3]: binds

B7: glutaminyl-tRNA synthetase (GlnRS), endogenous, P47897 1-775 (enzyme)
chain: MAALDSLSLFTSLGLSEQKARETLKNSALSAQLREAATQAQQTLGSTIDKATGILLYGLASRLRDTRRLSFLVSYIASKKIHTEPQLSAALEYVRSHPLDPIDTVDFERECGVGVIVTPEQIEEAVEAAINRHRPQLLVERYHFNMGLLMGEARAVLKWADGKMIKNEVDMQVLHLLGPKLEADLEKKFKVAKARLEETDRRTAKDVVENGETADQTLSLMEQLRGEALKFHKPGENYKTPGYVVTPHTMNLLKQHLEITGGQVRTRFPPEPNGILHIGHAKAINFNFGYAKANNGICFLRFDDTNPEKEEAKFFTAICDMVAWLGYTPYKVTYASDYFDQLYAWAVELIRRGLAYVCHQRGEELKGHNTLPSPWRDRPMEESLLLFEAMRKGKFSEGEATLRMKLVMEDGKMDPVAYRVKYTPHHRTGDKWCIYPTYDYTHCLCDSIEHITHSLCTKEFQARRSSYFWLCNALDVYCPVQWEYGRLNLHYAVVSKRKILQLVATGAVRDWDDPRLFTLTALRRRGFPPEAINNFCARVGVTVAQTTMEPHLLEACVRDVLNDTAPRAMAVLESLRVIITNFPAAKSLDIQVPNFPADETKGFHQVPFAPIVFIERTDFKEEPEPGFKRLAWGQPVGLRHTGYVIELQHVVKGPSGCVESLEVTCRRADAGEKPKAFIHWVSQPLMCEVRLYERLFQHKNPEDPTEVPGGFLSDLNLASLHVVDAALVDCSVALAKPFDKFQFERLGYFSVDPDSHQGKLVFNRTVTLKEDPGKV
- binding [4]: binds
- binding [1]: binds
